From the supplement of paper PMC10849652
Some of the results follow.

Sequences of proteins named here, by UniProt entry; tags and fusion partners are left off. A change or cut given only in a name is not applied to a line headed by its entry.
UniProt Q6P1K1: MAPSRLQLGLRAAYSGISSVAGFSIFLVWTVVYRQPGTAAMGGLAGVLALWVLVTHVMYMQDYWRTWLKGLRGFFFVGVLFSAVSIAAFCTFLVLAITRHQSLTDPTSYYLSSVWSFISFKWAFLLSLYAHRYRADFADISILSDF
UniProt Q8NBI5: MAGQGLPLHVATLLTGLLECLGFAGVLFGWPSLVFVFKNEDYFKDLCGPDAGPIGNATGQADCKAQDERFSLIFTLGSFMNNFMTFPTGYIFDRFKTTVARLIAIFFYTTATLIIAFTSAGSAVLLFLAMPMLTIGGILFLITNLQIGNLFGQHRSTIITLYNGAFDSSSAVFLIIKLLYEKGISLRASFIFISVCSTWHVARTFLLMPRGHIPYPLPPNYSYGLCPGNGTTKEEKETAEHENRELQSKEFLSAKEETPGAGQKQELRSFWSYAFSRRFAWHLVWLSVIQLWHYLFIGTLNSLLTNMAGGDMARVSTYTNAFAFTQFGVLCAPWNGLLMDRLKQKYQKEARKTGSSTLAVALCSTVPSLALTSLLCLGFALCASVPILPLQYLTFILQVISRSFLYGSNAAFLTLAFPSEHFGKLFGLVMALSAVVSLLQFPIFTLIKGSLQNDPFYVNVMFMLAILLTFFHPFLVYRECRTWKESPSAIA
UniProt Q8WV83: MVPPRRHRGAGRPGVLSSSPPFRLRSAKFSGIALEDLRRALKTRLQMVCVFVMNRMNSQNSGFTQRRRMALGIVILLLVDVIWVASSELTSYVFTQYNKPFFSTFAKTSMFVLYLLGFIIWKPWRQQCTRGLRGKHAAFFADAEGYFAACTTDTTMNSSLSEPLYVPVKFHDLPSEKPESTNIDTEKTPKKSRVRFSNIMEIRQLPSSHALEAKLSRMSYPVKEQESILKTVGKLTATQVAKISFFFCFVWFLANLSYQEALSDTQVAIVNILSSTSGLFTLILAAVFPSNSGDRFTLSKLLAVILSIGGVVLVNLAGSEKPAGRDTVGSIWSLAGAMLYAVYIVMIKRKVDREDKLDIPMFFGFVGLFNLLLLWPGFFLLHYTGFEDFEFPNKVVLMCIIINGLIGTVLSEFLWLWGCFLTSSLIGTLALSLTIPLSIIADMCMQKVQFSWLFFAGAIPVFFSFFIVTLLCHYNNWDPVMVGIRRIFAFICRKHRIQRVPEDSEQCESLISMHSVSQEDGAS
UniProt Q8IVJ1: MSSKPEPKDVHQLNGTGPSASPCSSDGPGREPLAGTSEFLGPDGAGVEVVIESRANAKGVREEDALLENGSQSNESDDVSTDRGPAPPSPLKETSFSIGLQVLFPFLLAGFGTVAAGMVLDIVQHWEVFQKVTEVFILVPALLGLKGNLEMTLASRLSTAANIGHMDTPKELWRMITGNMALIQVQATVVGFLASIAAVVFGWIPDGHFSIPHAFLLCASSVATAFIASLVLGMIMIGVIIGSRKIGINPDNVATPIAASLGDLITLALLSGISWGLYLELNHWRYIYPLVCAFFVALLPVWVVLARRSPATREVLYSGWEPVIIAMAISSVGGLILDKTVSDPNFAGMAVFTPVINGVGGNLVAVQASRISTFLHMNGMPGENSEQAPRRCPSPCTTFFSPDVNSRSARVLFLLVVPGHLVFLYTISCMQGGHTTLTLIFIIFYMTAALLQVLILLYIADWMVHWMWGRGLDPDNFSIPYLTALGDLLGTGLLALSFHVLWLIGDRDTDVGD
UniProt Q9H015: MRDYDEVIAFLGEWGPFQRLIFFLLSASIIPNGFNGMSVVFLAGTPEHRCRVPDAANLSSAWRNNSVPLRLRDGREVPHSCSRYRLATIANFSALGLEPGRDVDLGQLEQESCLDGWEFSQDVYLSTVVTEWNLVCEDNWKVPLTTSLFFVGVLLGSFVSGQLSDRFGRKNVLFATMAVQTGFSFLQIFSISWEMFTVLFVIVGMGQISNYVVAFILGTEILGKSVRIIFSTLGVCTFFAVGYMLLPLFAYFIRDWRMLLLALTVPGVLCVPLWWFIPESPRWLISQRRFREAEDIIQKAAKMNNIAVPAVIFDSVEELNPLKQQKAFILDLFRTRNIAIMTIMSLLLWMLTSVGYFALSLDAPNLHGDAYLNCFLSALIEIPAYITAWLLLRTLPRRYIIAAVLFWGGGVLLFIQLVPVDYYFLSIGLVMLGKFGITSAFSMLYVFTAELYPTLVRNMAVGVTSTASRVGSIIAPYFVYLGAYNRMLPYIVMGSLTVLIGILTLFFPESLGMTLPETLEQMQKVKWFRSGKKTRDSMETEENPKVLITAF
UniProt Q96K37: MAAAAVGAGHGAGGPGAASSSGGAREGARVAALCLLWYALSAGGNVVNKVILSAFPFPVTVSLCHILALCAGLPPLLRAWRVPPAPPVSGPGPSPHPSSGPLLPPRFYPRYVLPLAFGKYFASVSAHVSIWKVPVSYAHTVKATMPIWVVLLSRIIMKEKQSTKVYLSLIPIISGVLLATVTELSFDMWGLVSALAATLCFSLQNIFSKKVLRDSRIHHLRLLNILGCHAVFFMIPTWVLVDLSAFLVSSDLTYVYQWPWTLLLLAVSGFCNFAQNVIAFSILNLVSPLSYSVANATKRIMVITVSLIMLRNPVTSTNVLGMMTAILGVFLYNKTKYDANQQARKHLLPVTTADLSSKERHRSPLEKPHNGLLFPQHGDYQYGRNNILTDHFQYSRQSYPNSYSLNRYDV
UniProt Q0GE19: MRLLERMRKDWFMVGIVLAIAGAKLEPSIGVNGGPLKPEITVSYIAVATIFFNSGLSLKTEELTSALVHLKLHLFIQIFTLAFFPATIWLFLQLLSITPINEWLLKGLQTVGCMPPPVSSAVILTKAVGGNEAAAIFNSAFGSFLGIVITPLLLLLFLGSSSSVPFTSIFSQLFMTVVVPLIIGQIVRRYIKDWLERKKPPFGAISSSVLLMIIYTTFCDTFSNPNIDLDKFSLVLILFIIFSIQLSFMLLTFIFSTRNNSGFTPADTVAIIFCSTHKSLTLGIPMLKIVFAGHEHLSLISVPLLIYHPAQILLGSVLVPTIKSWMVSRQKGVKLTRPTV
UniProt Q9BRV3: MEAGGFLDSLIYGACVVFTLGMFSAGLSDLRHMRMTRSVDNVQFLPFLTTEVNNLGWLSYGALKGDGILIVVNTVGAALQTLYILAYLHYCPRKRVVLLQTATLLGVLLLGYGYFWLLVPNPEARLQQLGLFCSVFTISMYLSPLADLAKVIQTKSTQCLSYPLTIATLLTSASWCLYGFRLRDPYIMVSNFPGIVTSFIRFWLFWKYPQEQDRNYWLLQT
UniProt P43003, whole entry, looked up: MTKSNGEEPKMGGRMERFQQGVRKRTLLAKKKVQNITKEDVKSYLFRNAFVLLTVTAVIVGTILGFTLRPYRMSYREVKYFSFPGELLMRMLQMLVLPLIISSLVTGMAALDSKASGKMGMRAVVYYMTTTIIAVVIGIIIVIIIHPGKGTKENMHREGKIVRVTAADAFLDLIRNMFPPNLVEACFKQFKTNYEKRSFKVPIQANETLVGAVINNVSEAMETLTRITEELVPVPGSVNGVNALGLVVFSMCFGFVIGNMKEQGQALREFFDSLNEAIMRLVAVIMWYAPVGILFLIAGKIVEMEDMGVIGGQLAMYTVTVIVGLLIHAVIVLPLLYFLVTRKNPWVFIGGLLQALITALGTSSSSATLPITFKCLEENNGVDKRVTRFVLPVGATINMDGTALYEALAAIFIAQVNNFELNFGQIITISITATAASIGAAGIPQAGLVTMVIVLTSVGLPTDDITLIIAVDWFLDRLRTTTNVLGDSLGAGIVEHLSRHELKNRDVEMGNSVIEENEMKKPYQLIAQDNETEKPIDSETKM
UniProt O15431: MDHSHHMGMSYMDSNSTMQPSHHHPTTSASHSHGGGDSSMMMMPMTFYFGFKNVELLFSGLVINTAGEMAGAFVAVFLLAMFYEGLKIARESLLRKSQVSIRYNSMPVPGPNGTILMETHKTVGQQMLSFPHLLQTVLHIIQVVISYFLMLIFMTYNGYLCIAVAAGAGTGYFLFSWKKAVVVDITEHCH
UniProt A1A5C7: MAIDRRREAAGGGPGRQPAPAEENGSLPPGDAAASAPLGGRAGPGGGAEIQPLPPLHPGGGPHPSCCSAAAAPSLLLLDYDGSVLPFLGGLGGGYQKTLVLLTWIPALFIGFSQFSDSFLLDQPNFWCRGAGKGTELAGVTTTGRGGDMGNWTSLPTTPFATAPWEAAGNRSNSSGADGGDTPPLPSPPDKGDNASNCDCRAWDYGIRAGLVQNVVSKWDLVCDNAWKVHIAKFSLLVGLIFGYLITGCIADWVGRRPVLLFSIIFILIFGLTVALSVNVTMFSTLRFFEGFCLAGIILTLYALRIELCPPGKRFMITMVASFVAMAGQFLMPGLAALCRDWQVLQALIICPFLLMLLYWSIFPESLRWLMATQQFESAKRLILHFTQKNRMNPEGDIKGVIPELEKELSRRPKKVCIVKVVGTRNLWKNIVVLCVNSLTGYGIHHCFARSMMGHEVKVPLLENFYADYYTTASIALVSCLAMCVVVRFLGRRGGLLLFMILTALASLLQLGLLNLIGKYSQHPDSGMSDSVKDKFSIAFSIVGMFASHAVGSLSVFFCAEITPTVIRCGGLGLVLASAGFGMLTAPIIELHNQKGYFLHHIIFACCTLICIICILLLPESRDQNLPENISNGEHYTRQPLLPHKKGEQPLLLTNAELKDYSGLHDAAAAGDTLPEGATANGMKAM
UniProt Q9HAB3: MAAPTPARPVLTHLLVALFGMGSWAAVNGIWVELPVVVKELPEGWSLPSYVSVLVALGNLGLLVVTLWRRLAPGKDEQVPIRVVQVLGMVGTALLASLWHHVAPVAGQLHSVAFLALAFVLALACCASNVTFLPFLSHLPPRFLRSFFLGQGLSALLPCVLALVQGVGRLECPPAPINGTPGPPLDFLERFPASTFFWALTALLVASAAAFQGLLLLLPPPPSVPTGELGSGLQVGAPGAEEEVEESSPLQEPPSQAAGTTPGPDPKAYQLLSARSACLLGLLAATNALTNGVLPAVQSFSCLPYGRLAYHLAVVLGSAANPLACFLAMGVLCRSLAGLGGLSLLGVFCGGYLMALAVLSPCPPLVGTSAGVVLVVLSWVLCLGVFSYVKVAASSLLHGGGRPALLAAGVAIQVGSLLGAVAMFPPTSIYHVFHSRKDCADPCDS
UniProt Q8N2U9: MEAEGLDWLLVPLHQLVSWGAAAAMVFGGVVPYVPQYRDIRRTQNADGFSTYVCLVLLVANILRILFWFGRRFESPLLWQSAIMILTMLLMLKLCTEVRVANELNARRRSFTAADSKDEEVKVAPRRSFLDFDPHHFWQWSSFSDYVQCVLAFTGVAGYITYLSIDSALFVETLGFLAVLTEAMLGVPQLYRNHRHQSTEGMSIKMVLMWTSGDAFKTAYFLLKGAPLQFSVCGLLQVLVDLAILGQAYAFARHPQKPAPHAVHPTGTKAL
UniProt Q7Z2H8: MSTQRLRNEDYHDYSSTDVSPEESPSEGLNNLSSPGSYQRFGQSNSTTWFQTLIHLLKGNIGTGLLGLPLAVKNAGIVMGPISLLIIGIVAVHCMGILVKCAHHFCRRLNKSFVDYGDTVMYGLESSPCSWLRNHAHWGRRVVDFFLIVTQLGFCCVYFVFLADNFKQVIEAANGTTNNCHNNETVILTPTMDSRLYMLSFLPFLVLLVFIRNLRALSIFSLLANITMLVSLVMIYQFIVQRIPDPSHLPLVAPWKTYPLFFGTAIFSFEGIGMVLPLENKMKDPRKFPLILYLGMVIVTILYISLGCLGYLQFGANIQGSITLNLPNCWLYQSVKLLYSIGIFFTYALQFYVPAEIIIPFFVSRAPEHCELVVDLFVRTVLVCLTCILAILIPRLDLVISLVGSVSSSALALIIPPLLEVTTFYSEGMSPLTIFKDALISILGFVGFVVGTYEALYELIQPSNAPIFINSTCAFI
UniProt Q6ZP29: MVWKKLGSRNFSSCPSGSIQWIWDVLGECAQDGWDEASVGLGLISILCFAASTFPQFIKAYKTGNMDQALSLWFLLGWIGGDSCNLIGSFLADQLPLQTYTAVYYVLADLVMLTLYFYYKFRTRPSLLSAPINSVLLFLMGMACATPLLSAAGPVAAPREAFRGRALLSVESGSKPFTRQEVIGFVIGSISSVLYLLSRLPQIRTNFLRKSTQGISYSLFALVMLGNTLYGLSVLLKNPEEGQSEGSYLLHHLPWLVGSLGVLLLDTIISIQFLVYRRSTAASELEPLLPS
UniProt Q6YBV0: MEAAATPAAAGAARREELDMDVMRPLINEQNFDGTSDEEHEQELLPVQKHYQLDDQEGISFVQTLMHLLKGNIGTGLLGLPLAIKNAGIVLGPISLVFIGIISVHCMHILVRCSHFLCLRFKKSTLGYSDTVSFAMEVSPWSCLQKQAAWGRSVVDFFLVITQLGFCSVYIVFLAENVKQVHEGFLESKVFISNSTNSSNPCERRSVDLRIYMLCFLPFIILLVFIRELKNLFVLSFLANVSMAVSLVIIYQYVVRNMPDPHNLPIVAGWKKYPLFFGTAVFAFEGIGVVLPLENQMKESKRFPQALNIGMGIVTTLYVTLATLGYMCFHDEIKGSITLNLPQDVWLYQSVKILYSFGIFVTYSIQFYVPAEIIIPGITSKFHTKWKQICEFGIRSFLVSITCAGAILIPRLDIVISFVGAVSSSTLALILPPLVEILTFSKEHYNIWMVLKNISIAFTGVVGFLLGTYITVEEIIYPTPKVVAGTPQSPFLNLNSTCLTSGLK

Compound: NC(=O)Nc1cc(-c2cccc(F)c2)sc1C(=O)N[C@H]1CCCNC1
Assay: log2 fold change, soluble protein after heating vs DMSO (PISA); higher = thermal stabilisation; K562 cells, 10 uM, 30 min; active = over 0.2 and 3.5 SD of the protein, either way, in both replicates (recomputed)
How it was run: (§1)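 Values are thermal stability changes relative to control samples and are taken from duplicates. They are stated as log2 fold changes. Before quantification by TMTpro 16plex LC-MS/MS with equalised channel sums, K562 cells at 2×10^6 cells/mL were treated with 10 μM compound for 30 min, heated in aliquots for 3 min across 48°C-58°C, pooled, extracted in PBS with 0.5% NP-40 at 4°C, and centrifuged at 21,000xg for 90 min to give the soluble supernatant.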

log2 fold change, inactive:
SLC48A1 (UniProt Q6P1K1) -0.229
SLC25A28 (UniProt Q96A46) -0.047
SLC43A3 (UniProt Q8NBI5) 0.099
SLC35F5 (UniProt Q8WV83) 0.06
SLC41A1 (UniProt Q8IVJ1) 0.214
SLC3A2 (UniProt F5H867) -0.125
SLC66A3 (UniProt Q8N755) -0.002
SLC23A2 (UniProt Q9UGH3) -0.095

Compound: NC(=O)c1cnc(N[C@@H]2CCCC[C@@H]2N)nc1Nc1cccc(-n2nccn2)c1
Assay: as above
How it was run: as §1

log2 fold change, inactive:
SLC25A14 isoform 3 (UniProt O95258) -0.056
SLC22A4 (UniProt Q9H015) 0.016
SLC35C2 isoform 3 (UniProt Q9NQQ7) -0.136
SLC35D1 (UniProt Q9NTN3) -0.139
SLC35E1 (UniProt Q96K37) -0.034
SLC10A7 isoform 1 (UniProt Q0GE19) 0.031
SLC50A1 (UniProt Q9BRV3) 0.921
SLC4A3 isoform 3 (UniProt P48751) -0.331
SLC1A3 (UniProt P43003) 0.237
SLC25A35 (UniProt Q3KQZ1) 0.087
SLC46A1 (UniProt Q96NT5) -0.143
SLC35G1 (UniProt Q2M3R5) 0.06
SLC15A4 (UniProt Q8N697) -0.054
SLC35C1 (UniProt Q96A29) 0.012
SLC31A1 (UniProt O15431) 0.005
SLC3A2 (UniProt F5GZS6) 0.114
SLC35A5 (UniProt Q9BS91) 0.027

Compound: NC1(c2ccc(-c3nc4ccn5c(=O)[nH]nc5c4cc3-c3ccccc3)cc2)CCC1
Assay: as above
How it was run: as §1

log2 fold change, inactive:
SLC22A23 (UniProt A1A5C7) 0.138
SLC26A2 (UniProt P50443) 0.114
SLC27A6 (UniProt Q9Y2P4) 0.019
SLC10A3 (UniProt P09131) -0.227
SLC25A14 isoform 3 (UniProt O95258) 0.033
SLC52A2 (UniProt Q9HAB3) 0.049
SLC35E1 (UniProt Q96K37) -0.057
SLC10A7 isoform 1 (UniProt Q0GE19) 0.096
SLC50A1 (UniProt Q9BRV3) -0.072
SLC4A3 isoform 3 (UniProt P48751) -0.146
SLC66A2 (UniProt Q8N2U9) 0.097
SLC36A1 (UniProt Q7Z2H8) -0.033
SLC1A3 (UniProt P43003) 0.103
SLC41A1 (UniProt Q8IVJ1) -0.064
SLC6A19 (UniProt Q695T7) -0.329
SLC3A2 (UniProt F5H867) -0.057
SLC66A1 (UniProt Q6ZP29) 0
SLC15A4 (UniProt Q8N697) -0.02
SLC31A1 (UniProt O15431) 0.02
SLC3A2 (UniProt F5GZS6) -0.008
SLC66A3 (UniProt Q8N755) 0.037
SLC36A4 (UniProt Q6YBV0) -0.022
